Measured values taken from article PMC7997005, “Dynamic interplay between the co-opted Fis1 mitochondrial fission protein and membrane contact site proteins in supporting tombusvirus replication” (PLoS Pathogens, 2021).
Results are given in words; binding and its absence hold for the method and conditions named. Binding calls can cover weak binding; strength is not graded here. For some of these results: Binding seen in cells or lysates may run through a third protein. For some of these results: Where a sequence is shown, tags or fusion partners need not be part of it.

Columns and labels:
[1] = biological target: T1, yeast Fis1p, MYTH bait (S. cerevisiae) (UniProt P40515); assay: two-hybrid; split-ubiquitin-based membrane yeast two-hybrid assay (MYTH) in yeast; bait (TBSV p33 or yeast Fis1p) co-expressed with NubG prey proteins
T1 sequence: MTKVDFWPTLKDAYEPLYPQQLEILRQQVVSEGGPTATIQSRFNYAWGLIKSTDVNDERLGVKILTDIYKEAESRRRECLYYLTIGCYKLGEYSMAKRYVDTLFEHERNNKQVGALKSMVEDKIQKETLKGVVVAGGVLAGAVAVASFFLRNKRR

[2] = biological target: T2, nYFP-AtFis1A (Arabidopsis thaliana) (UniProt Q9M1J1); assay: split reporter; BiFC (nYFP/cYFP fusions, 35S promoter, co-agroinfiltration) in N. benthamiana leaves infected with TBSV or CIRV; confocal microscopy; includes TRV-MBP control plants
T2 sequence: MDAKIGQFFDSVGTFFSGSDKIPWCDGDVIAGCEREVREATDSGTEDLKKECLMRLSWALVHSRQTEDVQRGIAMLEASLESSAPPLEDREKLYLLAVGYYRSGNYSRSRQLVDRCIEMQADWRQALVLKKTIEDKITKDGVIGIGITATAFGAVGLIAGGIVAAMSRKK

[3] = biological target: T3, nYFP-AtFis1B (Arabidopsis thaliana) (UniProt Q94CK3); assay: as above
T3 sequence: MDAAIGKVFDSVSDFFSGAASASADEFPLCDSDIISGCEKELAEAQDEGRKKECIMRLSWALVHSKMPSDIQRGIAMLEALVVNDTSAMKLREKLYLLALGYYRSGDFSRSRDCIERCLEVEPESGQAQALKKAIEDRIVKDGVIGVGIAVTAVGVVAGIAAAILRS

[4] = biological target: T3, nYFP-AtFis1B (Arabidopsis thaliana); assay: split reporter; BiFC in mock-infected (noninfected) N. benthamiana leaves, in the absence of TBSV replication
[5] = biological target: CIRV Flag-p95^pol replication protein (carnation Italian ringspot virus (CIRV)); assay: co-IP; Flag-affinity purification of Flag-tagged replication proteins (TBSV Flag-p33 + Flag-p92pol or CIRV Flag-p36 + Flag-p95pol) from the detergent-solubilized membrane fraction of yeast; samples cross-linked with formaldehyde; co-purified His6-tagged proteins detected with anti-His antibody; WT, fis1Δ, Fis1p- or Dnm1-ZZ-over-expressing yeast; cycloheximide time course
[6] = biological target: CIRV Flag-p36 replication protein (carnation Italian ringspot virus (CIRV)); assay: as above
[7] = biological target: MBP-tagged CIRV p36, soluble C-terminal region (carnation Italian ringspot virus (CIRV)); assay: pull-down; MBP-tagged p33 or p36 C-terminal regions captured by MBP affinity; captured His6-tagged Fis1-ΔTM proteins from E. coli detected with anti-His antibody
[8] = biological target: MBP-tagged TBSV p33, soluble C-terminal region (tomato bushy stunt virus (TBSV)); assay: as above
[9] = biological target: CIRV p36-cYFP replication protein (carnation Italian ringspot virus (CIRV)); assay: split reporter; BiFC (nYFP/cYFP fusions, 35S promoter, co-agroinfiltration) in N. benthamiana leaves infected with TBSV or CIRV; confocal microscopy; includes TRV-MBP control plants

Molecule: Arabidopsis Sac1 protein, MYTH prey (enzyme)
- binding [1]: binds

Molecule: AtSac1-cYFP (Arabidopsis thaliana) (enzyme)
- binding [2]: binds
- binding [3]: binds
- binding [4]: binds

B1: yeast His6-Sac1p (enzyme, S. cerevisiae, UniProt P32368 1-623, looked up)
chain: MTGPIVYVQNADGIFFKLAEGKGTNDAVIHLANQDQGVRVLGAEEFPVQGEVVKIASLMGFIKLKLNRYAIIANTVEETGRFNGHVFYRVLQHSIVSTKFNSRIDSEEAEYIKLLELHLKNSTFYFSYTYDLTNSLQRNEKVGPAASWKTADERFFWNHYLTEDLRNFAHQDPRIDSFIQPVIYGYAKTVDAVLNATPIVLGLITRRSIFRAGTRYFRRGVDKDGNVGNFNETEQILLAENPESEKIHVFSFLQTRGSVPIYWAEINNLKYKPNLVLGENSLDATKKHFDQQKELYGDNYLVNLVNQKGHELPVKEGYESVVHALNDPKIHYVYFDFHHECRKMQWHRVKLLIDHLEKLGLSNEDFFHKVIDSNGNTVEIVNEQHSVVRTNCMDCLDRTNVVQSVLAQWVLQKEFESADVVATGSTWEDNAPLLTSYQNLWADNADAVSVAYSGTGALKTDFTRTGKRTRLGAFNDFLNSASRYYQNNWTDGPRQDSYDLFLGGFRPHTASIKSPFPDRRPVYIQLIPMIICAALTVLGATIFFPKDRFTSSKNLLYFAGASIVLALSTKFMFKNGIQFVNWPKLVDVGFLVVHQTHDKEQQFKGLKYAQSPKFSKPDPLKRD
notes: Sac1p PI4P phosphatase, S. cerevisiae; source: yeast, expressed from a plasmid, in detergent-solubilized membrane fraction
- binding [5]: binds
- binding [6]: binds

B2: His6-Fis1-ΔTM (missing the C-terminal 25 aa) (domain or fragment, UniProt P40515 1-130)
chain: MTKVDFWPTLKDAYEPLYPQQLEILRQQVVSEGGPTATIQSRFNYAWGLIKSTDVNDERLGVKILTDIYKEAESRRRECLYYLTIGCYKLGEYSMAKRYVDTLFEHERNNKQVGALKSMVEDKIQKETLK
- binding [7]: binds
- binding [8]: binds

B3: yeast His6-Fis1p (natural protein, S. cerevisiae, UniProt P40515 1-155, looked up)
chain: T1 sequence
notes: Fis1p mitochondrial fission 1 protein, S. cerevisiae; also called HisScFis1; source: yeast, expressed from a plasmid, in detergent-solubilized membrane fraction
- binding [5]: binds
- binding [6]: binds

B4: His6-AtFis1A (protein, UniProt Q9M1J1 1-170)
chain: T2 sequence
- binding [5]: binds
- binding [6]: binds

B5: nYFP-AtFis1A (protein, UniProt Q9M1J1 1-170)
chain: T2 sequence
- binding [9]: binds

B6: His6-AtFis1B (protein, UniProt Q94CK3 1-167)
chain: T3 sequence
- binding [5]: binds
- binding [6]: binds

B7: nYFP-AtFis1B (protein, UniProt Q94CK3 1-167)
chain: T3 sequence
- binding [9]: binds
